Our source for the binding values is PMC10093141.

Amino acid sequences for entries named in this document (tags omitted).
UniProt P46937: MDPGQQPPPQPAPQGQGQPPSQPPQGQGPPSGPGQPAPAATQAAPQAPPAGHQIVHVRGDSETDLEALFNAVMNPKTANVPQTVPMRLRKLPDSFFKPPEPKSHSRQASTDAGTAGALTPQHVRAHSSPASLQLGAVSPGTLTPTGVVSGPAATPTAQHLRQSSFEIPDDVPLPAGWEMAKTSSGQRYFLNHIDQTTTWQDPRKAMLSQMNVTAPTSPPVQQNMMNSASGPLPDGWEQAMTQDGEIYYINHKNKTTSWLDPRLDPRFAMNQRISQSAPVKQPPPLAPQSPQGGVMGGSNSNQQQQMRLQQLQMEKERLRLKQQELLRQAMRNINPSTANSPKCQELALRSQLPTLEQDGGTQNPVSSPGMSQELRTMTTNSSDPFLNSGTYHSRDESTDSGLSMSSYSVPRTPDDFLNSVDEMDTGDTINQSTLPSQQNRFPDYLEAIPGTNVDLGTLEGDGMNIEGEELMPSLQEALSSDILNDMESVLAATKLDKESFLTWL

The test concerns the target Yes1 Associated Transcriptional Regulator (YAP) (human (endogenous in A549 and Calu-1)) (UniProt P46937). Nature of the test: FRET or BRET; FRET by flow cytometry on fixed, permeabilized A549 and Calu-1 cells, untreated or treated 24 h with CytoMix; YAP labeled by antibodies with PE (donor, FL2), TBC1D2 with Cy5 (acceptor, FL4), FRET in FL3; FRET efficiency by the Riemann algorithm.

No constants are given. Whether binding was seen depends on the method and setting. In cells and extracts the contact can be indirect. Some binding calls cover weakened binding; strength is not graded here.

B1: TBC1D2 (protein, UniProt Q9BYX2 1-928)
chain: MEGAGENAPESSSSAPGSEESARDPQVPPPEEESGDCARSLEAVPKKLCGYLSKFGGKGPIRGWKSRWFFYDERKCQLYYSRTAQDANPLDSIDLSSAVFDCKADAEEGIFEIKTPSRVITLKAATKQAMLYWLQQLQMKRWEFHNSPPAPPATPDAALAGNGPVLHLELGQEEAELEEFLCPVKTPPGLVGVAAALQPFPALQNISLKHLGTEIQNTMHNIRGNKQAQGTGHEPPGEDSPQSGEPQREEQPLASDASTPGREPEDSPKPAPKPSLTISFAQKAKRQNNTFPFFSEGITRNRTAQEKVAALEQQVLMLTKELKSQKELVKILHKALEAAQQEKRASSAYLAAAEDKDRLELVRHKVRQIAELGRRVEALEQERESLAHTASLREQQVQELQQHVQLLMDKNHAKQQVICKLSEKVTQDFTHPPDQSPLRPDAANRDFLSQQGKIEHLKDDMEAYRTQNCFLNSEIHQVTKIWRKVAEKEKALLTKCAYLQARNCQVESKYLAGLRRLQEALGDEASECSELLRQLVQEALQWEAGEASSDSIELSPISKYDEYGFLTVPDYEVEDLKLLAKIQALESRSHHLLGLEAVDRPLRERWAALGDLVPSAELKQLLRAGVPREHRPRVWRWLVHLRVQHLHTPGCYQELLSRGQAREHPAARQIELDLNRTFPNNKHFTCPTSSFPDKLRRVLLAFSWQNPTIGYCQGLNRLAAIALLVLEEEESAFWCLVAIVETIMPADYYCNTLTASQVDQRVLQDLLSEKLPRLMAHLGQHHVDLSLVTFNWFLVVFADSLISNILLRVWDAFLYEGTKVVFRYALAIFKYNEKEILRLQNGLEIYQYLRFFTKTISNSRKLMNIAFNDMNPFRMKQLRQLRMVHRERLEAELRELEQLKAEYLERRASRRRAVSEGCASEDEVEGEA
As for B1, the binding entry is on record as “binds”.
